Laboratory results: patent publication US20130053310A1 (NOVO NORDISK A/S, priority 2010, published 2013)

Experiment: general procedure: Fmoc solid-phase peptide synthesis; pre-loaded low-load Wang resin (e.g. Fmoc-Thr(tBu)-Wang LL, 0.27 mmol/g) for C-terminal acids; PAL-ChemMatrix for C-term
Conditions: whole synthesis, UPLC

Substance	final HPLC purity	final HPLC purity (run 1)	final HPLC purity (run 2)
[Arg^25, Leu^27, Glu^28]-Glucagon	100%	–	–
[Glu^21, Lys^25, Leu^27]-Glucagon	–	98%	100%
[Glu^21, Arg^25, Leu^27]Glucagon	–	98%	100%
[Glu^21, Arg^25, Leu^27, Ser^28]-Glucagon	–	97%	100%
[His^25, Leu^27]-Glucagon	96%	–	–
[Arg^25, Leu^27]-Glucagon	–	98%	100%
[Lys^25, Leu^27]-Glucagon	–	98%	100%
[Glu^15, Glu^21, Arg^25, Leu^27]-Glucagon	–	100%	98%
